Binding data for 3 molecules are collected here from PMC4239114.

These are yes or no findings as the source states them, for the method shown. For part of these data: In cells and extracts the contact can be indirect. Some results given as binding are weak or reduced against the parent protein; the word gives no strength. For part of these data: Tags and fused reporters may be left off the sequences shown.

Assay [1] has as its target T1, GAL4 BD-Myc-NleE (enteropathogenic E. coli (EPEC 2348/69)) (UniProt B7UI22).
T1 sequence: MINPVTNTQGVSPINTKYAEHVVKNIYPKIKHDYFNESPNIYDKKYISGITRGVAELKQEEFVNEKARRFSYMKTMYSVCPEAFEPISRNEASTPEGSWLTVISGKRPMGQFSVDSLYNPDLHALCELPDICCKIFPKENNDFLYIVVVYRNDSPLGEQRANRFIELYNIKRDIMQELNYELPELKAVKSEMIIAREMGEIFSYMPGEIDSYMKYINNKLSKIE
The assay can be described thus: two-hybrid; yeast strain AH109 transformed with plasmid combinations (bait+prey): GAL4 BD-Myc-NleE with GAL4 AD-fused TAB3 truncations.

In assay [2] the target is T2, NleE expressed in 293T cells (co-immunoprecipitation) (enteropathogenic E. coli (EPEC 2348/69)) (UniProt B7UI22).
T2 sequence: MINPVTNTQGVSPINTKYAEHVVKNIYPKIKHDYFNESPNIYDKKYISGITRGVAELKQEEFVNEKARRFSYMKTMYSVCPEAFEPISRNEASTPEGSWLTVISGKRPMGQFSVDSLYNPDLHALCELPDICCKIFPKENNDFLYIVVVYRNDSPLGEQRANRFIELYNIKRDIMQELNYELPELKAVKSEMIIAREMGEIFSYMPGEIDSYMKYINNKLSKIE
The experiment in a line: co-IP; transfected 293T cells; anti-Flag immunoprecipitates and total lysates immunoblotted.

For “TAB3 residues 52-194 (GAL4 AD fusion) (from UniProt Q8N5C8 52-194) (domain or fragment)”, the binding result in assay [1] is “binds”.
Take “TAB3 residues 52-194 expressed in 293T cells (from UniProt Q8N5C8 52-194) (domain or fragment)”: in assay [2], the binding entry is “binds”.

B1: TAB3 (GAL4 AD fusion) (protein, UniProt Q8N5C8 1-712)
chain: MAQSSPQLDIQVLHDLRQRFPEIPEGVVSQCMLQNNNNLEACCRALSQESSKYLYMEYHSPDDNRMNRNRLLHINLGIHSPSSYHPGDGAQLNGGRTLVHSSSDGHIDPQHAAGKQLICLVQEPHSAPAVVAATPNYNPFFMNEQNRSAATPPSQPPQQPSSMQTGMNPSAMQGPSPPPPPPSYMHIPRYSTNPITVTVSQNLPSGQTVPRALQILPQIPSNLYGSPGSIYIRQTSQSSSGRQTPQSTPWQSSPQGPVPHYSQRPLPVYPHQQNYQPSQYSPKQQQIPQSAYHSPPPSQCPSPFSSPQHQVQPSQLGHIFMPPSPSTTPPHPYQQGPPSYQKQGSHSVAYLPYTASSLSKGSMKKIEITVEPSQRPGTAINRSPSPISNQPSPRNQHSLYTATTPPSSSPSRGISSQPKPPFSVNPVYITYTQPTGPSCTPSPSPRVIPNPTTVFKITVGRATTENLLNLVDQEERSAAPEPIQPISVIPGSGGEKGSHKYQRSSSSGSDDYAYTQALLLHQRARMERLAKQLKLEKEELERLKSEVNGMEHDLMQRRLRRVSCTTAIPTPEEMTRLRSMNRQLQINVDCTLKEVDLLQSRGNFDPKAMNNFYDNIEPGPVVPPKPSKKDSSDPCTIERKARRISVTSKVQADIHDTQAAAADEHRTGSTQSPRTQPRDEDYEGAPWNCDSCTFLNHPALNRCEQCEMPRYT
On to B1, for which the binding entry in assay [1] was “binds”.
